Experimental data from the supplement of paper PMC6331611.
“And” between values parts separate entries of the source, which are not always exact repeats. Equal values may be shown once. ± gives the standard deviation of the averaged measurements. The full ranking holds about 1,600 compounds; the median of “normalized intracellular growth (luminescence, IQM-normalized) in RAW264.7 macrophages” is about 1, and the lowest 2% start at about 0.43. The list shows a part of the results.

Tested on: Salmonella enterica serovar Typhimurium SL1344
Assay: normalized intracellular growth (luminescence, IQM-normalized) in RAW264.7 macrophages (fraction of plate interquartile mean); higher = more bacterial growth (less inhibition)
Conditions: 10 µM

Structure (SMILES) | normalized intracellular growth (time point: T3 (3 h)) | normalized intracellular growth (time point: Tfinal (~6 h))
CC(=O)N[C@@H]([C@@H](O)[C@H](O)[C@H](O)CO)[C@@H](O)CC(=O)C(=O)O | 1.02 ± 0.058 | 1.06 ± 0.24
CCOC(=O)C1=C[C@]2(CC)CCCN3CCc4c(n1c1ccccc41)[C@@H]32 | 0.954 ± 0.034 | 0.798 ± 0.22
Cc1cccc(CN2CCN(C(c3ccccc3)c3ccc(Cl)cc3)CC2)c1 (stereo unspecified) | 0.974 ± 0.041 | 1.14 ± 0.051
COc1cnc(NS(=O)(=O)c2ccc(N)cc2)nc1 | 1.02 ± 0.023 | 0.905 ± 0.033
O=C(O)CCC(=O)Nc1ccc(S(=O)(=O)Nc2nccs2)cc1 | 0.989 ± 0.021 | 0.977 ± 0.034
O=NN(CCCl)C(=O)NC1CCCCC1 | 0.928 ± 0.067 | 0.934 ± 0.068
COc1ccccc1O | 1.07 ± 0.064 | 0.977 ± 0.096
CC(=O)OCC1=C(C(=O)O)N2C(=O)[C@@H](NC(=O)CSc3ccncc3)[C@H]2SC1 | 1 ± 0.024 | 0.957 ± 0.042
CN(C)[C@@H]1C(O)=C(C(N)=O)C(=O)[C@@]2(O)C(O)=C3C(=O)c4c(O)ccc(Cl)c4[C@@](C)(O)[C@H]3C[C@@H]12 | 0.846 ± 0.031 | 0.23 ± 0.02
O=C1OC2(c3ccc(O)cc3Oc3cc(O)ccc32)c2ccccc21 | 1.02 ± 0.069 | 0.891 ± 0.079
CC(C)[C@H](NC(=O)[C@H](CC(=O)O)NC(=O)[C@H](CCCCN)NC(=O)[C@@H](N)CCCN=C(N)N)C(=O)N[C@@H](Cc1ccc(O)cc1)C(=O)O | 0.935 ± 0.077 | 0.955 ± 0.14
C[C@]12CC[C@@H]3c4ccc(O)cc4CC[C@H]3[C@@H]1CCC2=O | 1.17 ± 0.19 | 1.06 ± 0.14
CC1(C)[C@H]2CC[C@]1(CS(=O)(=O)O)C(=O)C2=Cc1ccc(C=C2C(=O)[C@@]3(CS(=O)(=O)O)CC[C@@H]2C3(C)C)cc1 | 0.978 ± 0.028 | 1.17 ± 0.22
COc1ccc(C(=O)c2ccc(C)cc2)c(O)c1 | 1.02 ± 0.028 | 0.926 ± 0.2
NC(=O)NC(=O)Cc1ccccc1 | 0.993 ± 0.021 | 0.979 ± 0.038
CN1[C@@H](CC(=O)c2ccccc2)CCC[C@H]1C[C@H](O)c1ccccc1 | 0.974 ± 0.048 | 1.13 ± 0.14
c1ccc2[nH]c(-c3cscn3)nc2c1 | 1.02 ± 0.034 | 1.19 ± 0.023
OC[C@@H](O)[C@@H](O[C@@H]1O[C@H](CO)[C@H](O)[C@H](O)[C@H]1O)[C@H](O)[C@@H](O)CO | 1 and 0.956 | 1.01
COc1ccc(-c2cc(=O)c3c(O)cc(O[C@@H]4O[C@H](CO[C@@H]5O[C@@H](C)[C@H](O)[C@@H](O)[C@H]5O)[C@@H](O)[C@H](O)[C@H]4O)cc3o2)cc1O | 1.04 ± 0.074 | 0.916 ± 0.11
O=C(Nc1ccccc1)c1ccccc1O | 1.02 ± 0.035 | 1.01 ± 0.057
CS(=O)(=O)c1ccc(C2=C(c3ccccc3)C(=O)OC2)cc1 | 1.007 ± 0.0092 | 1.27 ± 0.098
Oc1ccc(Cl)c2c1CCC2 | 1.13 ± 0.017 | 1.12 ± 0.2

Complete entries from above.
`Cc1cccc(CN2CCN(C(c3ccccc3)c3ccc(Cl)cc3)CC2)c1` (stereo unspecified) is listed with normalized intracellular growth (time point: T3 (3 h)): 0.974 ± 0.041; normalized intracellular growth (time point: Tfinal (~6 h)): 1.14 ± 0.051
`O=C(O)CCC(=O)Nc1ccc(S(=O)(=O)Nc2nccs2)cc1` is listed with normalized intracellular growth (time point: T3 (3 h)): 0.989 ± 0.021; normalized intracellular growth (time point: Tfinal (~6 h)): 0.977 ± 0.034

The results go on.

Structure (SMILES) | normalized intracellular growth (time point: T3 (3 h)) | normalized intracellular growth (time point: Tfinal (~6 h))
Cc1[nH]c(=O)c(C#N)cc1-c1ccncc1 | 0.9382 ± 0.0078 | 0.867 ± 0.087
C#C[C@]1(O)CC[C@H]2[C@@H]3CCc4cc(OC5CCCC5)ccc4[C@H]3CC[C@@]21C | 0.99 ± 0.07 | 0.92 ± 0.34
CN(C)CCC=C1c2ccccc2CCc2ccccc21 | 1.02 ± 0.052 | 1.06 ± 0.048
Cc1ccnc2c1NC(=O)c1cccnc1N2C1CC1 | 1.08 ± 0.037 | 1.16 ± 0.15
N=C(N)N | 1.02 ± 0.081 | 1 ± 0.13
C[C@]12CC[C@H]3C(=CCc4cc(O)ccc43)[C@@H]1CCC2=O | 1.04 ± 0.049 | 1.23 ± 0.049
C[C@]12C=CC(=O)C=C1CC[C@@H]1[C@@H]2[C@@H](O)C[C@@]2(C)[C@H]1CC[C@]2(O)C(=O)COP(=O)(O)O | 0.954 ± 0.029 | 1.16 ± 0.24
Cc1c(C(N)=O)cc([N+](=O)[O-])cc1[N+](=O)[O-] | 0.958 ± 0.046 | 0.95 ± 0.089
C=C[C@H]1CN2CC[C@H]1C[C@@H]2[C@@H](O)c1ccnc2ccc(OC)cc12 | 0.945 ± 0.031 | 0.979 ± 0.037
Cc1cccc(C)c1NC(=O)C1CCCCN1C (stereo unspecified) | 1.05 ± 0.064 | 1.04 ± 0.09
COc1ccc(C2C(=O)c3ccccc3C2=O)cc1 | 1 ± 0.11 | 1.1 ± 0.094
CN(C)c1ccc2nc3ccc(=[N+](C)C)cc-3sc2c1 | 1.29 ± 0.088 | 1.4 ± 0.2
Cc1ncc([N+](=O)[O-])n1CC(O)CCl (stereo unspecified) | 1 ± 0.046 | 1.09 ± 0.2
CCCCC(CC)CN1CN(CC(CC)CCCC)CC(C)(N)C1 (stereo unspecified) | 0.709 ± 0.16 | 0.861 ± 0.24
COc1cc2c(cc1OC)C(=O)C(CC1CCN(Cc3ccccc3)CC1)C2 (stereo unspecified) | 1.14 ± 0.093 | 1.21 ± 0.073
O=C(CCCN1CCC(O)(c2ccc(Br)cc2)CC1)c1ccc(F)cc1 | 0.391 ± 0.23 | 1.28 ± 0.14
CNCC[C@H](Oc1cccc2ccccc12)c1cccs1 | 0.92 ± 0.071 | 1.03 ± 0.18
CC(=O)c1ccc2c(c1)N(CCCN1CCC(CCO)CC1)c1ccccc1S2 | 1 ± 0.047 | 1.16 ± 0.032
CO[C@@]1(NC(=O)Cc2cccs2)C(=O)N2C(C(=O)O)=C(COC(N)=O)CS[C@@H]21 | 0.966 ± 0.025 | 0.984 ± 0.072
COc1cc(Cc2cnc(N)nc2N)cc(OC)c1OC | 0.563 ± 0.068 | 0.155 ± 0.025
CCN(CC)CCOC(=O)C(c1ccccc1)C1CCCCC1 (stereo unspecified) | 0.932 ± 0.011 | 1.06 ± 0.049
